Experimental findings from US20210032312A1 are described below.

Chains of the proteins cited; added tags and fusions are not shown. Residues count along the entry.
UniProt P01732, residues 22-182: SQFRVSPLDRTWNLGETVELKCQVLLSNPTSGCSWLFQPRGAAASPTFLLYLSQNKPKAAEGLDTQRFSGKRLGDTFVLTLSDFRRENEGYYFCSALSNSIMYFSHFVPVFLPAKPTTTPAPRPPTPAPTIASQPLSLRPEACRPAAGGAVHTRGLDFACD

Sequences and labels used below:
B1: P283FR9P1366_A9 (designed binder)
chain: LPAPKNLVVSRVTEDSARLSWTAPDAAFDSFNIAYGEYPGPGEAIVLTVPGSERSYDLTGLKPGTEYWVPIWGVKGGELSEPLSAIFTT
B2: P283FR9P1366_H8 (designed binder)
chain: B1 chain with N32Y, A34S, G36P, Y38W, P41S, W68A, P70F, G73C, E78W, E81D
B3: P283FR9P1366_D6 (designed binder)
chain: B1 chain with A34F, G36P, Y38L, P39V, G40F, P70N, W72S, L79H, E81W
B4: P283ER9P1365_G3 (designed binder)
chain: LPAPKNLVVSRVTEDSARLSWTAPDAAFDSFGISYYEWAPNGEAIQLSVPGSERSYDLTGLKPGTEYHVVIIGVKGGEPSHPLGAIFTT
B5: P283ER9P1365_A1 (designed binder)
chain: LPAPKNLVVSRVTEDSARLSWTAPDAAFDSFGIAYVEWWHRGEAISLPVPGSERSYDLTGLKPGTEYNVIITGVKGGIPSHPLGAIFTT
B6: P282BR9P1357_G9 (designed binder)
chain: LPAPKNLVVSRVTEDSARLSWPIASQIHSPFDSFLIQYQESEKVGEAIVLTVPGSERSYDLTGLKPGTEYTVSIYGVDVKYDIDSRPISSNPLSAIFTT
B7: P283FR9P1366_C2 (designed binder)
chain: LPAPKNLVVSRVTEDSARLSWTAPDAAFDSFKISYPEWPPEGEAIVLTVPGSERSYDLTGLKPGTEYAVFIWCVKGGEHSWPLSAIFTT
B8: P283DR9P1364_H9 (designed binder)
chain: LPAPKNLVVSRVTEDSARLSWTAPDAAFDSFSISYIEYPEIPGGEAIVLTVPGSERSYDLTGLKPGTEYWVPIWGVKGGIQSWPLSAIFTT
B9: P283FR9P1366_H11 (designed binder)
chain: LPAPKNLVVSRVTEDSARLSWTAPDAAFDSFQIQYLETAPDGEAIVLTVPGSERSYDLTGLKPGTEYYVWIPGVKGGAFSPLSAIFTT
B10: P283GR7P1367_B4 (designed binder)
chain: LPAPKNLVVSRVTEDSARLSWTAPDAAFDSFSILYYELPPSGEAIVLTVPGSERSYDLTGLKPGTEYTVSIFGVKGGDNSFPLSAIFTT
B11: P283FR9P1366_H5 (designed binder)
chain: LPAPKNLVVSRVTEDSARLSWTAPDAAFDSFIYIENKVNGEAIVLTVPGSERSYDLTGLKPGTEYHVTIGGVKGGTESNTLSAIFTT
B12: P282BR9P1357_H3 (designed binder)
chain: LPAPKNLVVSRVTEDSARLSWKKREYQDPGFDSFLIQYQESEKVGEAIVLTVPGSERSYDLTGLKPGTEYTVSIYGVDVKWEGNRPVASNPLSAIFTT
B13: P282BR9P1357_D2 (designed binder)
chain: LPAPKNLVVSRVTEDSARLSWIKDGHPRHFDSFLIQYQESEKVGEAIVLTVPGSERSYDLTGLKPGTEYTVSIYGVDVVYDRGQLISSNPLSAIFTT
B14: P283ER9P1365_A7 (designed binder)
chain: LPAPKNLVVSRVTEDSARLSWTAPDAAFDSFYIPYWESEVYGEAIALPVPGSERSYDLTGLKPGTEYQVSIIGVKGGVYSQPLAAIFTT
B15: P283ER9P1365_H3 (designed binder)
chain: B14 chain with W36R, V40F, Y41R, E66K, Q68R, S70I, V78E, Y79F, A84S
B16: P283ER9P1365_E2 (designed binder)
chain: B14 chain with W36R, V40F, Y41R, E66K, Q68R, S70I, V78E, Y79F
B17: P283ER9P1365_G1 (designed binder)
chain: B14 chain with W36R, V40F, Y41R, P48S, E66K, Q68R, S70I, V78E, Y79F, A84G
B18: P283ER9P1365_F4 (designed binder)
chain: B14 chain with W36R, V40F, Y41R, E66K, Q68S, S70I, V78E, Y79F, A84G
B19: P283ER9P1365_C1 (designed binder)
chain: B14 chain with P50T
B20: P282BR9P1357_E5 (designed binder)
chain: LPAPKNLVVSRVTEDSARLSWWPRKYQRPFDSFLIQYQESEKVGEAIVLTVPGSERSYDLTGLKPGTEYTVSIYGVDIEWIGNRPIASNPLSAIFTT
B21: P283ER9P1365_B6 (designed binder)
chain: LPAPKNLVVSRVTEDSARLSWTAPDAAFDSFGIGYAEPVVTGEAISLSVPGSERSYDLTGLKPGTEYWVVIIGVKGGINSYPLGAIFTT
B22: P283DR9P1364_H6 (designed binder)
chain: LPAPKNLVVSRVTEDSARLSWTAPDAAFDSFIIAYPETPVRGEAIVLTVPGSERSYDLTGLKPGTEYFVIIIGVKGGQESFPLSAIFTT
B23: P283FR9P1366_B7 (designed binder)
chain: B22 chain with I32W, A34T, T38W, R41N, F68W, I70V, I72W, Q78V, F81P
B24: P283FR9P1366_C3 (designed binder)
chain: B22 chain with I32K, T38W, V40D, R41G, I72Y, Q78I, E79L, F81P
B25: P283FR9P1366_F8 (designed binder)
chain: B22 chain with I32A, T38I, P39A, V40K, R41W, I72Y, Q78V, E79H
B26: P283FR9P1366_A5 (designed binder)
chain: B22 chain with I32W, T38W, V40T, I70V, I72Y, Q78S, E79P, F81P
B27: P283FR9P1366_C4 (designed binder)
chain: B22 chain with I32N, T38W, F68W, Q78E, E79D, F81W
B28: P283FR9P1366_F5 (designed binder)
chain: B1 chain with N32D, A34G, G36P, Y38W, G40I, P41K, P70I, E78D, L79R
B29: P283FR9P1366_D8 (designed binder)
chain: B22 chain with I32E, T38I, V40I, R41A, I72Y, Q78D, E79W, F81D
B30: P283FR9P1366_G1 (designed binder)
chain: B22 chain with I32Y, A34S, T38L, R41E, F68W, I72W, Q78A, E79T, F81E
B31: P283FR9P1366_A1 (designed binder)
chain: B7 chain with K32W, S34T, P40V, E41P, C73G, E78D, H79A, W81E
B32: P283GR7P1367_A11 (designed binder)
chain: B22 chain with I32D, T38W, V40T, R41D, I72Y, Q78S, E79Y, F81E
B33: P283FR9P1366_H3 (designed binder)
chain: B1 chain with N32A, G36P, Y38W, G40I, P41K, P70V, W72Y, E78V, L79F
B34: P283FR9P1366_D7 (designed binder)
chain: B22 chain with I32S, T38L, R41K, I70V, I72W, Q78T, E79Y, F81G
B35: P283FR9P1366_E11 (designed binder)
chain: B22 chain with I32D, T38W, R41P, F68W, I72K, Q78N, E79I, F81W
B36: P283FR9P1366_H6 (designed binder)
chain: B22 chain with I32D, T38W, R41T, F68W, I72F, Q78E, E79R, F81W
B37: P283FR9P1366_G8 (designed binder)
chain: B22 chain with I32D, T38L, V40I, R41G, I70V, I72Y, Q78I, E79H, F81A
B38: P283FR9P1366_H10 (designed binder)
chain: B22 chain with I32N, T38W, V40P, R41E, I70V, I72Y, Q78H, E79L, F81D
B39: P283FR9P1366_G5 (designed binder)
chain: B22 chain with I32Q, T38Y, V40A, R41L, Q78D
B40: P283FR9P1366_F9 (designed binder)
chain: B22 chain with I32H, A34F, T38L, V40I, R41A, F68W, I70N, I72S, Q78Y, F81W
B41: P283FR9P1366_C6 (designed binder)
chain: B22 chain with I32S, T38W, R41Y, I70V, I72Y, Q78N, E79Y, F81D
B42: P283FR9P1366_H7 (designed binder)
chain: B22 chain with I32Q, T38Y, V40A, R41L, I72A, Q78I, E79Q, F81W
B43: P283FR9P1366_H9 (designed binder)
chain: B22 chain with I32E, T38W, R41N, F68W, I70V, I72W, Q78V, E79N, F81Y
B44: P283FR9P1366_D12 (designed binder)
chain: B22 chain with I32D, T38W, V40L, R41G, F68W, I72L, Q78D, E79Q, F81W

Positions count from the first letter of the chain named. No constants are given. Whether binding was seen depends on the method and setting. Some entries that bind do so weakly or less than the wild type.

The target of the assay is recombinant human CD8 alpha fused to Fc fragment of human IgG1 (human) (UniProt P01732). Briefly: ELISA, biotinylated CD8W7 or CD8W13.
With B1, the binding entry is recorded as “binds”.

Consider B2, for which the binding result is on record as “binds”.

With B3, the binding entry is on record as “binds”.

For B4, the binding result is on record as “binds”.

B5: the binding entry was “binds”.

With B6, the binding entry is “binds”.

Take B7: the binding entry is reported as “binds”.

As to B8, the binding result was “binds”.

Consider B9, for which the binding entry is on record as “binds”.

For the molecule B10, the binding result is recorded as “binds”.

Regarding B11, the binding result is given as “binds”.

As to B12, the binding entry is “binds”.

In the case of B13, the binding result is listed as “binds”.

For the molecule B14, the binding result is reported as “binds”.

On to B15, for which the binding result is given as “binds”.

For B16, the binding result is “binds”.

With B17, the binding result is listed as “binds”.

As to B18, the binding result is “binds”.

For B19, the binding result is “binds”.

For the molecule B20, the binding entry is recorded as “binds”.

Take B21: the binding result was “binds”.

As to B22, the binding result was “binds”.

On to B23, for which the binding entry is listed as “binds”.

In the case of B24, the binding entry is given as “binds”.

B25: the binding entry was “binds”.

With B26, the binding result is “binds”.

Consider B27, for which the binding result is “binds”.

Take B28: the binding result is recorded as “binds”.

Regarding B29, the binding result is listed as “binds”.

On to B30, for which the binding entry is “binds”.

Turning to B31, the binding result is recorded as “binds”.

Consider B32, for which the binding entry is “binds”.

On to B33, for which the binding entry is recorded as “binds”.

Turning to B34, the binding result was “binds”.

For B35, the binding entry is recorded as “binds”.

On to B36, for which the binding result was “binds”.

Turning to B37, the binding entry is “binds”.

Turning to B38, the binding entry is “binds”.

Consider B39, for which the binding entry is “binds”.

Regarding B40, the binding result is “binds”.

In the case of B41, the binding result is reported as “binds”.

Take B42: the binding entry is listed as “binds”.

Take B43: the binding entry is on record as “binds”.

As to B44, the binding entry is “binds”.
